Measured values reported in paper PMC7502373.
Results are given in words; binding and its absence hold for the method and conditions named. In cells and extracts the contact can be indirect.

Chains of the proteins cited; added tags and fusions are not shown.
UniProt P17325: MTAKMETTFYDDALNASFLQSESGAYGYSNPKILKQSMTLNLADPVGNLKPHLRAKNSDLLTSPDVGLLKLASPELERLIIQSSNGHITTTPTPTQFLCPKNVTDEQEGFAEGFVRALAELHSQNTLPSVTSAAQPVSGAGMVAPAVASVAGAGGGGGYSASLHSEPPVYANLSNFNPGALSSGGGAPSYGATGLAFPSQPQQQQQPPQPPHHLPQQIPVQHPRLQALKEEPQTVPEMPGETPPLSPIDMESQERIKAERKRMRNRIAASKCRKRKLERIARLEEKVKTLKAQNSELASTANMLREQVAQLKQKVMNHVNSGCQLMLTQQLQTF

Target: c-Jun (rat (endogenous in primary cortical neurons)) (UniProt P17325)
Assay: co-IP; c-Jun immunoprecipitated (c-Jun antibody 1:50, overnight 4 °C, Protein G Sepharose) from RIPA lysates of rat cortical neurons treated 1 h with DEM (100 μM, oxidative stress); western blot

| binding | Binder |
| --- | --- |
| no binding | JunB (protein, UniProt P24898 1-344) MCTKMEQPFYHDDSYAAAGYGRSPGSLSLHDYKLLKPTLALNLADPYRGLKGPGARGPGPEGSGAGSYFSGQGSDTGASLKLASTELERLIVPNSNGVITTTPTPPGQYFYPRGGGSGGGTGGGVTEEQEGFADGFVKALDDLHKMNHVTPPNVSLGASGGPQAGPGGVYAGPEPPPVYTNLSSYSPASAPSGGSGTAVGTGSSYPTATISYLPHAPPFAGGHPAQLGLSRGASAFKEEPQTVPEARSRDATPPVSPINMEDQERIKVERKRLRNRLAATKCRKRKLERIARLEDKVKTLKAENAGLSSAAGLLREQVAQLKQKVMTHVSNGCQLLLGVKGHAF |
| no binding | JunD (protein, UniProt P52909 1-341) METPFYGEEALSGLAAGASSVAGAAGAPGGGGFAPPGRAFPGAPPTSSMLKKDALTLSLAEQGAAGLKPGSATAPSALRPDGAPDGLLASPDLGLLKLASPELERLIIQSNGLVTTTPTSTQFLYPKVAASEEQEFAEGFVKALEDLHKQSQLGAATAATSGAPAPPAPADLAATPGATETPVYANLSSFAGGAGPPGGAATVAFAAEPVPFPPPPGALGPPPPPHPPRLAALKDEPQTVPDVPSFGDSPPLSPIDMDTQERIKAERKRLRNRIAASKCRKRKLERISRLEEKVKTLKSQNTELASTASLLREQVAQLKQKVLSHVNSGCQLLPQHQVPAY |
